# The list shows a part of the results. These are further read-outs of the screen, such as a control signal, another cell line or another target. No call is given for them. Compounds called inactive in the main read-out are mostly missing here. The note in brackets gives the kind of curve behind each potency; many fits are weak.
# Assay: qHTS Assay for Modulators of Lamin A Splicing
# Settings: HeLa LMNA splicing GFP/RFP minigene ratio, 48 h
# Method in brief: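 S3 HeLa stable clones carrying a lamin A-EGFP splicing minigene plus DsRed2 were seeded at 600 cells/well in Opti-MEM with 2% FBS, pin-dosed and incubated 48 h at 37°C. Acumen cytometry (488 nm) gave the GFP/RFP total-intensity ratio.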
# [1] = measured here: GFP splicing reporter channel
# [2] = measured here: RFP viability control channel
smiles,measurement,setting,value
CC1=C(CC(=O)c2ccccc2)C(=O)c2ccccc2C1=O,AC50,[1],"35.5 µM [falling, single point]"
same,AC50,[2],"35.5 µM [falling, single point]"
COc1ccc(-c2noc(CCC(=O)Nc3cc(OC)ccc3OC)n2)cc1,AC50,[1],"11.2 µM [rising, partial curve, poor fit]"
same,AC50,[2],"17.8 µM [rising, single point]"
CN1/C(=C\C(=O)c2cccnc2Cl)C(C)(C)c2ccccc21,AC50,[1],"12.6 µM [rising, single point]"
same,AC50,[2],"20 µM [rising, single point]"
CCCCn1c(N2CCC(Cc3ccccc3)CC2)nc2c1c(=O)[nH]c(=O)n2C,AC50,[1],"12.6 µM [rising, partial curve]"
same,AC50,[2],"22.4 µM [rising, single point]"
O=c1/c(=C/c2ccccn2)sc2nc3ccccc3n12,AC50,[2],"0.126 µM [falling, full curve, poor fit]"
Cc1cc(C)nc(NS(=O)(=O)c2ccc(NC(=O)CN3C(=O)S/C(=C\c4ccccc4)C3=O)cc2)n1,AC50,[1],"3.98 µM [falling, single point]"
Cc1cc2c(n1-c1ccc(C(=O)NCCc3ccccc3)cc1)CCC(C)C2 (centres undefined),AC50,[1],"22.4 µM [rising, single point]"
same,AC50,[2],"15.8 µM [rising, single point]"
Cc1cccc2sc(NNC(=O)c3ccc(S(=O)(=O)N4CCc5ccccc5C4)cc3)nc12,AC50,[2],"2.51 µM [rising, full curve]"
Cc1cc(=O)n(C)c(=O)n1CCCNc1ccccc1,AC50,[1],"11.2 µM [rising, single point]"
same,AC50,[2],"17.8 µM [rising, single point]"
COc1cccc(Cn2c(=O)c(CCc3ccccc3)nc3cnc(N4CCNCC4)nc32)c1,AC50,[1],"20 µM [falling, partial curve]"
same,AC50,[2],"20 µM [falling, partial curve]"
Cc1ccc2nc(-c3ccc4c(c3)OCCO4)cc(C(=O)O)c2c1,AC50,[2],"31.6 µM [rising, single point]"
Cc1cccc(NS(=O)(=O)c2ccc3c(c2)OCC(C(=O)N2CCCC2)O3)c1C (centres undefined),AC50,[2],"0.0282 µM [falling, full curve]"
CCCc1ccc(C(=O)O)cc1,AC50,[1],"1.58 µM [falling, partial curve, poor fit]"
COC(=O)N/N=C/c1ccc([N+](=O)[O-])o1,AC50,[2],"25.1 µM [rising, single point]"
Clc1cccc(Cl)c1/C=C/c1nc2ccccc2[nH]1,AC50,[1],"3.16 µM [rising, partial curve]"
same,AC50,[2],"15.8 µM [rising, partial curve]"
CCOc1ccc(OCc2ccc(C(=O)N/N=C(\C)c3ccccn3)cc2)cc1,AC50,[2],"35.5 µM [falling, single point]"
COc1cccc(C2CC3(CC(C)(C)NC(=S)N3)Oc3cc(O)ccc32)c1 (centres undefined),AC50,[2],"12.6 µM [rising, single point]"
CS(=O)(=O)Cc1nc2ccccc2oc1=O,AC50,[2],"31.6 µM [rising, single point]"
O=C(NCCS(=O)(=O)N1CCN(c2ccc(F)cc2)CC1)C1CC(=O)N(c2ccccc2)C1 (centres undefined),AC50,[1],"6.31 µM [falling, single point]"
same,AC50,[2],"2.51 µM [falling, partial curve, poor fit]"
O=C(CSc1nnnn1C1CCCCC1)Nc1nc2c(s1)CCCC2,AC50,[1],"12.6 µM [rising, partial curve, poor fit]"
same,AC50,[2],"22.4 µM [rising, partial curve]"
CC(=O)Nc1ccc(-c2nnc(SCC(=O)c3ccc4c(c3)Cc3ccccc3-4)n2C)cc1,AC50,[1],"35.5 µM [falling, single point]"
same,AC50,[2],"35.5 µM [falling, single point]"
CCOC(=O)c1c(NC(NC(C)=O)C(Cl)(Cl)Cl)sc2c1CCCC2 (centres undefined),AC50,[1],"35.5 µM [falling, partial curve, poor fit]"
same,AC50,[2],"25.1 µM [falling, partial curve, poor fit]"
O=C(c1ccccc1NS(=O)(=O)c1ccc(Cl)cc1)N1CCc2ccccc21,AC50,[2],"35.5 µM [rising, single point]"
CCn1c(C(=O)N2CCC(C(=O)N3CCN(c4ccccn4)CC3)CC2)cc2sccc21,AC50,[2],"10 µM [rising, partial curve]"
CC1CN(c2ccc(NS(=O)(=O)c3ccccc3)cc2C(=O)O)CC(C)O1 (centres undefined),AC50,[2],"10 µM [falling, single point]"
COC(=O)c1ccccc1NC(=O)c1cnc2sc(N3CCOCC3)nn2c1=O,AC50,[1],"6.31 µM [falling, partial curve, poor fit]"
same,AC50,[2],"5.62 µM [falling, partial curve, poor fit]"
O=CN1CCN(c2ncnc3c2nnn3Cc2c(F)cccc2Cl)CC1,AC50,[1],"2 µM [rising, partial curve, poor fit]"
same,AC50,[2],"2.51 µM [rising, full curve, poor fit]"
CCN(Cc1cc(OC)c(OC)c(OC)c1)C(=S)Nc1cccc(SC)c1,AC50,[1],"3.16 µM [rising, partial curve, poor fit]"
N/C(=N\OC(=O)c1ccc(Cl)cc1)c1ccccn1,AC50,[1],"35.5 µM [falling, single point]"
same,AC50,[2],"22.4 µM [falling, partial curve]"
CCn1c2ccccc2c2cc(NC(=O)CSc3nnc(C4CC4)n3Cc3ccco3)ccc21,AC50,[1],"12.6 µM [rising, partial curve, poor fit]"
same,AC50,[2],"17.8 µM [rising, partial curve, poor fit]"
CCC(C)NC(=O)Cc1ccc(NC(=O)N2CCCCc3ccccc32)cc1 (centres undefined),AC50,[2],"0.00316 µM [falling, full curve, poor fit]"
CCCCCOc1ccc(N2C(=O)C3C4C=CC(C3C2=O)N(C)C4=O)cc1 (centres undefined),AC50,[2],"15.8 µM [rising, single point]"
S=C(Nc1cccc(Br)c1)c1ccccc1,AC50,[2],"10 µM [rising, partial curve, poor fit]"
O=C(CS(=O)(=O)c1cccc2nsnc12)Nc1ccc(F)cc1F,AC50,[1],"10 µM [falling, partial curve, poor fit]"
same,AC50,[2],"7.08 µM [falling, full curve]"
Cc1ccc(S(=O)(=O)N2CCCOC2CNC(=O)C(=O)NCCc2c[nH]c3ccccc23)cc1 (centres undefined),AC50,[1],"11.2 µM [rising, partial curve]"
same,AC50,[2],"15.8 µM [rising, partial curve]"
O=C(Cn1ncc2c1-c1ccccc1OC2)N1CCN(c2ccccn2)CC1,AC50,[1],"35.5 µM [rising, single point]"
COc1ccc(N=c2cc(-c3ccc(OC)cc3)oc3ccccc23)cc1,AC50,[1],"31.6 µM [rising, single point]"
same,AC50,[2],"35.5 µM [rising, single point]"
CC(=O)N1CCOc2cc(S(=O)(=O)Nc3c(C)cccc3C(C)C)c(Cl)cc21,AC50,[2],"0.1 µM [falling, full curve]"
CCOC(=O)N1CCC(N(CCN(C)C)C(=S)Nc2ccc(F)c(Cl)c2)CC1,AC50,[1],"7.94 µM [falling, partial curve, poor fit]"
same,AC50,[2],"12.6 µM [falling, partial curve, poor fit]"
CCOC(=O)c1c(-c2ccc(OC)cc2)csc1NC(=O)COc1ccc2c(C)cc(=O)oc2c1,AC50,[1],"0.251 µM [falling, partial curve]"
O=C(c1ccc(-c2ccccc2)c(F)c1)C1CCCN(C(=O)c2cncs2)C1 (centres undefined),AC50,[2],"12.6 µM [falling, partial curve, poor fit]"
O=[N+]([O-])/C(N=Nc1ccccc1)=N\Nc1ccccc1,AC50,[1],"14.1 µM [rising, partial curve]"
same,AC50,[2],"31.6 µM [rising, single point]"
CC(C)c1ccc(S(=O)(=O)c2n[nH]n3c2nc(=O)c2ccccc23)cc1,AC50,[2],"22.4 µM [rising, single point]"
Cc1ccc2oc(=O)n(CCOc3ccccc3C)c2c1,AC50,[1],"0.0501 µM [rising, full curve, poor fit]"
same,AC50,[2],"0.0141 µM [rising, full curve, poor fit]"
Cc1cccc(Sc2ccc([N+](=O)[O-])cc2[N+](=O)[O-])n1,AC50,[1],"15.8 µM [rising, single point]"
same,AC50,[2],"17.8 µM [rising, single point]"
COc1ccc(OCC(O)Cn2cnc(-c3ccc(Br)cc3)c2)cc1 (centres undefined),AC50,[1],"12.6 µM [rising, single point]"
same,AC50,[2],"31.6 µM [rising, single point]"
COCCCN=C1NN=C(c2cc(C)n(-c3ccccc3)c2C)CS1,AC50,[2],"0.0562 µM [falling, partial curve, poor fit]"
CC1(C)Cc2c(ccc3ccccc23)/C(=C/C#N)N1,AC50,[1],"20 µM [rising, single point]"
same,AC50,[2],"25.1 µM [rising, single point]"
O=C(Cc1ccc(-n2cccc2)cc1)N1CCN(c2ccccc2F)CC1,AC50,[1],"10 µM [rising, partial curve]"
same,AC50,[2],"10 µM [rising, partial curve]"
COc1cc(/C=N/NC(=O)CCN2CCCCC2)ccc1O,AC50,[1],"0.0794 µM [falling, full curve, poor fit]"
same,AC50,[2],"0.02 µM [falling, full curve, poor fit]"
COc1ccc(-c2cc(OC)c3c(C)oc(C)c3c(=O)c2)cc1OC,AC50,[2],"0.0891 µM [rising, full curve, poor fit]"
O=C(c1cccc(F)c1)N1CCN(c2ccc([N+](=O)[O-])c3cccnc23)CC1,AC50,[1],"6.31 µM [falling, single point]"

# Copied from the entries so far (6 entries):
smiles,measurement,setting,value
COc1ccc(OCC(O)Cn2cnc(-c3ccc(Br)cc3)c2)cc1 (centres undefined),AC50,[2],"31.6 µM [rising, single point]"
COCCCN=C1NN=C(c2cc(C)n(-c3ccccc3)c2C)CS1,AC50,[2],"0.0562 µM [falling, partial curve, poor fit]"
CC1(C)Cc2c(ccc3ccccc23)/C(=C/C#N)N1,AC50,[1],"20 µM [rising, single point]"
same,AC50,[2],"25.1 µM [rising, single point]"
O=C(Cc1ccc(-n2cccc2)cc1)N1CCN(c2ccccc2F)CC1,AC50,[1],"10 µM [rising, partial curve]"
same,AC50,[2],"10 µM [rising, partial curve]"
